For 5 molecules, binding results are on record in article PMC7124466.

Holding throughout (assay): cross-linking; intact purified yeast mitochondria (5 mg/ml, isotonic buffer: 250 mM sucrose, 1 mM EDTA, 10 mM MOPS-KOH, pH 7.2) crosslinked in organello with 2 mM CBDPS-H8/D8, 21 °C 10 min then on ice 110 min; Lys-Lys inter-protein crosslinked peptides enriched (SCX, avidin) and identified by LC-MS/MS, FDR 2%
Assay [1] concerns the target T1, LSP1 (yeast (endogenous in mitochondria of strain YPH499)) (UniProt Q12230).
T1 sequence: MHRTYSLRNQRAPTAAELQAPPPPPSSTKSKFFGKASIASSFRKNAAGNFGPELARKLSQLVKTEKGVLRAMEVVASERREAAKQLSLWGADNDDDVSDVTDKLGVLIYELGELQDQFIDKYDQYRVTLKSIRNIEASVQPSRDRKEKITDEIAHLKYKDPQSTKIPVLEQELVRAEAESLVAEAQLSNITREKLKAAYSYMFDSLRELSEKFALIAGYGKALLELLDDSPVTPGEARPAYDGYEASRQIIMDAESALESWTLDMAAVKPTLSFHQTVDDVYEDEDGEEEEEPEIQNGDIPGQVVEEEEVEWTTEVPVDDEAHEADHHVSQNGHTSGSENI

For assay [2], the target named is T2, ATP19 (yeast (endogenous in mitochondria of strain YPH499)) (UniProt P81451).
T2 sequence: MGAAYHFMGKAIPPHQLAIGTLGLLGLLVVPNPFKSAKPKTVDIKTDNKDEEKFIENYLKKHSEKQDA

The target in assay [3] is T3, IDH1 (yeast (endogenous in mitochondria of strain YPH499)) (UniProt P28834).
T3 sequence: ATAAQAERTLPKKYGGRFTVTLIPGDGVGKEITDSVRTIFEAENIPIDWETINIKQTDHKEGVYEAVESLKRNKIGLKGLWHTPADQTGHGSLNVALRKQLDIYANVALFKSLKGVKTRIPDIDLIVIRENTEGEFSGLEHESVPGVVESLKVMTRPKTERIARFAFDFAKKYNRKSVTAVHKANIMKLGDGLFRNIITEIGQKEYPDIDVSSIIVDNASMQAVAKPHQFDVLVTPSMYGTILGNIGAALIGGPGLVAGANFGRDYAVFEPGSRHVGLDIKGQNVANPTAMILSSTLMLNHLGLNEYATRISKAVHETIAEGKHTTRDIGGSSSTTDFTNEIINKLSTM

Assay [4] addresses T4, ATP20 (yeast (endogenous in mitochondria of strain YPH499)) (UniProt Q12233).
T4 sequence: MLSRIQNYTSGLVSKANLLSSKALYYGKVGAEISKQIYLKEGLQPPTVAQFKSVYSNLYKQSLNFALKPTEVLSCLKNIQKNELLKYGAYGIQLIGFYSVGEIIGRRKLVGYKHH

Assay [5] deals with T5, ATP5 (yeast (endogenous in mitochondria of strain YPH499)) (UniProt P09457).
T5 sequence: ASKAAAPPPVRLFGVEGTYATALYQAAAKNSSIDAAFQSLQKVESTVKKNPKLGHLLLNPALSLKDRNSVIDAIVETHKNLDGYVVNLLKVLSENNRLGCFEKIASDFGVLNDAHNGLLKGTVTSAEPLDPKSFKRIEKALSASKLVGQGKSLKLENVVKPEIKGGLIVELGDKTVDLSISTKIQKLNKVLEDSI

Assay [6] has as its target T6, ATP7 (yeast (endogenous in mitochondria of strain YPH499)) (UniProt P30902).
T6 sequence: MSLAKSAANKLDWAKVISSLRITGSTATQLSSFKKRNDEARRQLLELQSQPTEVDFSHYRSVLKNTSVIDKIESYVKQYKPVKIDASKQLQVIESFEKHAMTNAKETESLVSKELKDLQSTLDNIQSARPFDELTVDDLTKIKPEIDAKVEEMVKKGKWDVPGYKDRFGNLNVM

For assay [7], the target named is T7, KGD1 (yeast (endogenous in mitochondria of strain YPH499)) (UniProt P20967).
T7 sequence: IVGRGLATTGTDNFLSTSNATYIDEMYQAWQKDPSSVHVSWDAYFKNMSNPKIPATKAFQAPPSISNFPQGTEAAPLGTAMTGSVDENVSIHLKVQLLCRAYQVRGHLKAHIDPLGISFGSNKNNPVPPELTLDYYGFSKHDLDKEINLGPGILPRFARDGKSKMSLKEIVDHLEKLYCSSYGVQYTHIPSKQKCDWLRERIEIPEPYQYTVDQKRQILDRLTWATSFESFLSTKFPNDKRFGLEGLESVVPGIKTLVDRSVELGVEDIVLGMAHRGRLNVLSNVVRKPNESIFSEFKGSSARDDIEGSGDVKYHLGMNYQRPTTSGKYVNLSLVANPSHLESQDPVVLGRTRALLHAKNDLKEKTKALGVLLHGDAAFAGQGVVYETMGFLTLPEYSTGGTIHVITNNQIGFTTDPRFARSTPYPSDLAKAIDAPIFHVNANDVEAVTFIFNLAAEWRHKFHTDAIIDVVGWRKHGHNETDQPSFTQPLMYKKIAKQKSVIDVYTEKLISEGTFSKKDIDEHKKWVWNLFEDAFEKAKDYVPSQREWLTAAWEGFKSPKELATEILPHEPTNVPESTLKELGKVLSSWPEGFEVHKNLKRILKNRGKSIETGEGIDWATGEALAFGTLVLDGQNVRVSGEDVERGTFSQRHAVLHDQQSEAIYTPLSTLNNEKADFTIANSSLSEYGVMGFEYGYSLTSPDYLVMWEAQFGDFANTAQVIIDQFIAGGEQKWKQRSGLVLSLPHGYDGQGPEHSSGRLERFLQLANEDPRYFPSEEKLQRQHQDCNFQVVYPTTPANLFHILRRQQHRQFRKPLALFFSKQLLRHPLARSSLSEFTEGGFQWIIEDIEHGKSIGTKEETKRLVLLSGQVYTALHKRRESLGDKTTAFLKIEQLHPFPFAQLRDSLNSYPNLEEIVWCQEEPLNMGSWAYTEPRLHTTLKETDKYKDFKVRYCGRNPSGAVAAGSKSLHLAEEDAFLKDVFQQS

These are yes or no findings as the source states them, for the method shown. Binding seen in cells or lysates may run through a third protein. Some entries that bind do so weakly or less than the wild type.

B1: PIL1 (protein, UniProt P53252 1-339)
chain: MHRTYSLRNSRAPTASQLQNPPPPPSTTKGRFFGKGGLAYSFRRSAAGAFGPELSRKLSQLVKIEKNVLRSMELTANERRDAAKQLSIWGLENDDDVSDITDKLGVLIYEVSELDDQFIDRYDQYRLTLKSIRDIEGSVQPSRDRKDKITDKIAYLKYKDPQSPKIEVLEQELVRAEAESLVAEAQLSNITRSKLRAAFNYQFDSIIEHSEKIALIAGYGKALLELLDDSPVTPGETRPAYDGYEASKQIIIDAESALNEWTLDSAQVKPTLSFKQDYEDFEPEEGEEEEEEDGQGRWSEDEQEDGQIEEPEQEEEGAVEEHEQVGHQQSESLPQQTTA
For the molecule B1, the binding result in assay [1] is “binds”.

B2: TIM11 (protein, UniProt P81449 1-96)
chain: MSTVNVLRYSALGLGLFFGFRNDMILKCNAKKKEEQAQYEEKLKLVEEAKKEYAKLHPVVTPKDVPANASFNLEDPNIDFERVILNAVESLKEAST
With B2, the binding entry in assay [2] was “binds”.

B3: IDH2 (protein, UniProt P28241 16-369)
chain: ATVKQPSIGRYTGKPNPSTGKYTVSFIEGDGIGPEISKSVKKIFSAANVPIEWESCDVSPIFVNGLTTIPDPAVQSITKNLVALKGPLATPIGKGHRSLNLTLRKTFGLFANVRPAKSIEGFKTTYENVDLVLIRENTEGEYSGIEHIVCPGVVQSIKLITRDASERVIRYAFEYARAIGRPRVIVVHKSTIQRLADGLFVNVAKELSKEYPDLTLETELIDNSVLKVVTNPSAYTDAVSVCPNLYGDILSDLNSGLSAGSLGLTPSANIGHKISIFEAVHGSAPDIAGQDKANPTALLLSSVMMLNHMGLTNHADQIQNAVLSTIASGPENRTGDLAGTATTSSFTEAVIKRL
Turning to B3, the binding entry in assay [3] was “binds”.

B4: ATP4 (protein, UniProt P05626 36-244)
chain: MSSTPEKQTDPKAKANSIINAIPGNNILTKTGVLGTSAAAVIYAISNELYVINDESILLLTFLGFTGLVAKYLAPAYKDFADARMKKVSDVLNASRNKHVEAVKDRIDSVSQLQNVAETTKVLFDVSKETVELESEAFELKQKVELAHEAKAVLDSWVRYEASLRQLEQRQLAKSVISRVQSELGNPKFQEKVLQQSISEIEQLLSKLK
Take B4: the binding entry in assay [4], in assay [5] and in assay [6] was “binds” throughout.

B5: YMR31 (protein, UniProt P19955 9-123)
chain: AKSAYEPMIKFVGTRHPLVKHATEVVVHPCATNGMLPGSKECIPVSKFMENYKPFRVVPIKHSANAGLSSSKTSVFVNRPLQKDELASIFELPARFRYKPINEHELESINSGGAW
Take B5: the binding result in assay [7] is recorded as “binds”.
